{"sequences": {"note": "Protein sequences, listed by entry. Tags and fused reporters are not part of them. Residues count along the entry.", "UniProt Q15717, 1-243, stated change not applied": "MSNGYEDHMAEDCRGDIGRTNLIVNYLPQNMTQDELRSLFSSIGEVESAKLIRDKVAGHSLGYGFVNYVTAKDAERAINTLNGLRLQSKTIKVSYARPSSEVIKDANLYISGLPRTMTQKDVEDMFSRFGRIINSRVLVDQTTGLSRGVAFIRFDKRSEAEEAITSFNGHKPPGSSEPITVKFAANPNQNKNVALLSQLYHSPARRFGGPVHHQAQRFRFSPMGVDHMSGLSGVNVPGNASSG"}, "source": "paper PMC4967961", "molecular_target": "HuRΔIII (ΔRRMIII) (UniProt Q15717)", "experiment": "EMSA", "details": "100 nM protein; EMSA: 20 mM Tris-HCl pH 7.8, 150 mM KCl, 2 mM MgCl2, 0.1% Triton X-100, 0.5 mM DTT, heparin 5 mg/ml, BSA 1 mg/ml, 10% glycerol, on ice 15 min; 6% native PAGE, 0.5x TBE; recombinant protein; protein details: His; label: 5' 32P (end-labelled)", "note": "The exact form of at least one protein or probe is not confirmed. The comparison behind a weaker result is the experiment's own reference, which may not be listed here.", "data": [{"sequence": "UGGAGUGUGACAAUGGUGUUUG [miR-122 (5p)]", "values": [{"measurement": "binding result", "value": "binds more weakly"}]}]}
